Assay results reported in patent US20230079448A1, “DEVICES AND METHODS FOR NEGATIVE PRESSURE THERAPY” (APPLIED TISSUE TECHNOLOGIES LLC, priority 2020, published 2023).
For at least one compound, name, drawing or mass did not settle the structure.

Experiment: Activity of gel-based therapeutics after short-term storage
Assay type: physicochemical
Conditions: 0.5% (agarose) hydrogel
Description: According to Table 1, gel-therapeutic agent preparations comprising an antibiotic and a 0.5% (agarose) hydrogel may be stable for up to one week. Drugs dissolve passively into the gel and stay stable over time. In some embodiments, the gel-therapeutic agent preparation may further comprise saline. The gel may be biocompatible, meaning that it is structurally similar to the extracellular matrix in tissues. The gel may be flowable, allowing, for example, casting into a mold or injection via needle through a port. The loading of the […] agent preparation in the device may allow consistent and uniform contact with the skin even with patient movement, maintaining continuous delivery of the therapeutic agent to the underlying tissue. The gel-therapeutic agent preparation may prevent loss of the therapeutic agent in the event of a minor leak in the adhesive of the sealing portion of the device.

SMILES: CN(C)c1ccc(O)c2c1C[C@H]1C[C@H]3[C@H](N(C)C)C(O)=C(C(N)=O)C(=O)[C@@]3(O)C(O)=C1C2=O [Minocycline]
- Drug activity (after 3 days storage): 8.86 µg/mL
- Drug activity (after 7 days storage): 8.53 µg/mL
